Results as given in publication PMC7018950.
No constants are given. Whether binding was seen depends on the method and setting. In cells and extracts the contact can be indirect. Binding can be weak; no strength is given. One block for each binder: values may come before it.

Assays:
[1] = target: His6-tagged snapdragon chalcone isomerase-like protein (His6-AmCHIL) (Antirrhinum majus); test: pull-down; Method II: His6-AmCHIL added to extract of red snapdragon petals, Ni2+-coated Sepharose beads, 4 C 1 h; washes 0.05 M HEPES-NaOH pH 7.5; elution 500 mM imidazole; immunoblot with anti-AmCHS IgG; control without His6-AmCHIL; only the target purified
[2] = target: His6-tagged snapdragon CHIL (Antirrhinum majus (snapdragon)); test: pull-down; Method II: His6-AmCHIL added to the extract of red snapdragon petals, Ni2+-coated Sepharose beads, 4 °C 1 h; wash 0.05 M HEPES-NaOH pH 7.5; elution with 500 mM imidazole; immunoblot with anti-AmCHS IgG; control with water for His6-AmCHIL; only the target purified

binding [1]: binds
B1: snapdragon chalcone synthase (AmCHS) of the petal extract (enzyme, UniProt P06515 1-390)
chain: MVTVEEVRRAQRAEGPATVLAIGTATPANCVDQSTYPDYYFRITNSEHMTELKEKFKRMCDKSNIKRRYMHLTEEILKENPAMCEYMAPSLDARQDIVVVEVPRLGKEAAQKAIKEWGQPKSKITHLVFCTTSGVDMPGADYQLTKLLGLRPSVKRFMMYQQGCFAGGTVLRMAKDLAENNAGARVLVVCSEITAVTFRGPADTHLDSLVGQALFGDGAAAVIVGSDPVVGVERPLFQIVTAAQTLLPDSHGAIDGHLREVGLTFHLLKDVPGLISKNIEKSLKEAFDPLGISDWNSVFWIAHPGGPAILDQVEEKLGLKPEKLRSTRQVLSEYGNMSSACVLFILDEMRKSSAKEGMSTTGEGLDWGVLFGFGPGLTVETVVLHSVPLN

binding [2]: binds
B2: AmCHS of snapdragon petal extract (enzyme, UniProt P06515 1-390)
chain: B1 chain
